Laboratory results: the supplement of paper PMC12823440, “Inhibitors supercharge kinase turnover through native proteolytic circuits” (Nature, 2025)
The list shows a part of the results. The calls rarely recur for the same compound in another form.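 Kinases, fused to nanoluciferase, were expressed in K562 cells; luminescence was measured every 4 h from 2 to 18 h as percent of control (DMSO = 100%, positive control = 0%). A time point is decreased if signal falls significantly (2 sigma). Hits were called by the authors by a rule that is not shown; the count of time points alone does not decide it.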

Sequences of proteins named here, by UniProt entry; tags and fusion partners are left off. A change or cut given only in a name is not applied to a line headed by its entry.
UniProt P48729: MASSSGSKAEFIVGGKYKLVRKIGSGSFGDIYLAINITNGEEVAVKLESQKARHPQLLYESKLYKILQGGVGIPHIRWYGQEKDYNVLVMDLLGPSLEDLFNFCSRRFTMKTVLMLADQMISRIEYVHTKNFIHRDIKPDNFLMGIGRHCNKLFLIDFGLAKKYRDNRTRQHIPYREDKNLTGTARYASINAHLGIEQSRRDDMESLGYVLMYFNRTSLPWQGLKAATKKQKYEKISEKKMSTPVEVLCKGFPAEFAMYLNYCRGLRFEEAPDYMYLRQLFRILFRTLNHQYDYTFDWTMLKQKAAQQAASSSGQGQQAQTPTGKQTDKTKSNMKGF
UniProt P48730: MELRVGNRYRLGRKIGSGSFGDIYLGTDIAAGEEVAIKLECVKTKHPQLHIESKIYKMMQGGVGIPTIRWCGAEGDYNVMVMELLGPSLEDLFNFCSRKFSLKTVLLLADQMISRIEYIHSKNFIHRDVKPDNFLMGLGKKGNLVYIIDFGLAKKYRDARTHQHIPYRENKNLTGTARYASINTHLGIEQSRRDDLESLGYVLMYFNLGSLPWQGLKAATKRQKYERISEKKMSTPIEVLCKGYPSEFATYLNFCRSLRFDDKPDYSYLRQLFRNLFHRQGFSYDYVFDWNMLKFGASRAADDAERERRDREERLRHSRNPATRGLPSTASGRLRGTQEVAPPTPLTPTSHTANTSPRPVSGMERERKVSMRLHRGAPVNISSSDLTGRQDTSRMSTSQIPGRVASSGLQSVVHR
UniProt Q9Y463, whole entry, looked up: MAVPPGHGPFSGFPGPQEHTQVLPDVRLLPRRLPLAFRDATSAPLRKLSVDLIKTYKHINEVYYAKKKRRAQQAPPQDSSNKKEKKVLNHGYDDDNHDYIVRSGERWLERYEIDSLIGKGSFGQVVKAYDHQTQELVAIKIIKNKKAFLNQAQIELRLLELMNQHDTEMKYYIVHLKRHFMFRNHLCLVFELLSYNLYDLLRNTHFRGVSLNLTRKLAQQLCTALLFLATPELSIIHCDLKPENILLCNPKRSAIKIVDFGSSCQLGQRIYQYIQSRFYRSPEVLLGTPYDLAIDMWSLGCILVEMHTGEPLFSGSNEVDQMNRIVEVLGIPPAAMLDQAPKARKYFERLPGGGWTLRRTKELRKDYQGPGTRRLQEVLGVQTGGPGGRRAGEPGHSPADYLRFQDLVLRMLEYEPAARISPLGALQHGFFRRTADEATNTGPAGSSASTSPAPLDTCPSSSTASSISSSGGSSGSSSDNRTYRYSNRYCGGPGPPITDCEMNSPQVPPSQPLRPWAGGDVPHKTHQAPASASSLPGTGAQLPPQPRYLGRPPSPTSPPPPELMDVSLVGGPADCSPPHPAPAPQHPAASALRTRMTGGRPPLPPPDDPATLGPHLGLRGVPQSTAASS
UniProt Q92630: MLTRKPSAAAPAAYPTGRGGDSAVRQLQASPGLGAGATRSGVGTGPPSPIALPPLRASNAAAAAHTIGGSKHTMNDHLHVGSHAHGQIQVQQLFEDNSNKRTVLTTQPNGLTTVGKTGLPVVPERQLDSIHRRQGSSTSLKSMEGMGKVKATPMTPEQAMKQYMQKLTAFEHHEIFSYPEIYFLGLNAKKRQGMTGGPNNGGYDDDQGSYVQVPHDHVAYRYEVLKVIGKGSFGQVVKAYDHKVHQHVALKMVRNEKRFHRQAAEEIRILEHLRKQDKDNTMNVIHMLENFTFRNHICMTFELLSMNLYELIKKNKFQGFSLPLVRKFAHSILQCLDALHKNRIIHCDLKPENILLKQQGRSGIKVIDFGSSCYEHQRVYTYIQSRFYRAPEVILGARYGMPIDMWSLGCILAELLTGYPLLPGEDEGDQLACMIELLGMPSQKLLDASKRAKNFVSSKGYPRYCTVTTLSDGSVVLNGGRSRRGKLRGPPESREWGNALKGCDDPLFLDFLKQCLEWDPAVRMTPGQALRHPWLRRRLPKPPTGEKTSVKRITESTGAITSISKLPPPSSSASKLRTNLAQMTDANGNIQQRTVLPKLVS
UniProt P29317, whole entry: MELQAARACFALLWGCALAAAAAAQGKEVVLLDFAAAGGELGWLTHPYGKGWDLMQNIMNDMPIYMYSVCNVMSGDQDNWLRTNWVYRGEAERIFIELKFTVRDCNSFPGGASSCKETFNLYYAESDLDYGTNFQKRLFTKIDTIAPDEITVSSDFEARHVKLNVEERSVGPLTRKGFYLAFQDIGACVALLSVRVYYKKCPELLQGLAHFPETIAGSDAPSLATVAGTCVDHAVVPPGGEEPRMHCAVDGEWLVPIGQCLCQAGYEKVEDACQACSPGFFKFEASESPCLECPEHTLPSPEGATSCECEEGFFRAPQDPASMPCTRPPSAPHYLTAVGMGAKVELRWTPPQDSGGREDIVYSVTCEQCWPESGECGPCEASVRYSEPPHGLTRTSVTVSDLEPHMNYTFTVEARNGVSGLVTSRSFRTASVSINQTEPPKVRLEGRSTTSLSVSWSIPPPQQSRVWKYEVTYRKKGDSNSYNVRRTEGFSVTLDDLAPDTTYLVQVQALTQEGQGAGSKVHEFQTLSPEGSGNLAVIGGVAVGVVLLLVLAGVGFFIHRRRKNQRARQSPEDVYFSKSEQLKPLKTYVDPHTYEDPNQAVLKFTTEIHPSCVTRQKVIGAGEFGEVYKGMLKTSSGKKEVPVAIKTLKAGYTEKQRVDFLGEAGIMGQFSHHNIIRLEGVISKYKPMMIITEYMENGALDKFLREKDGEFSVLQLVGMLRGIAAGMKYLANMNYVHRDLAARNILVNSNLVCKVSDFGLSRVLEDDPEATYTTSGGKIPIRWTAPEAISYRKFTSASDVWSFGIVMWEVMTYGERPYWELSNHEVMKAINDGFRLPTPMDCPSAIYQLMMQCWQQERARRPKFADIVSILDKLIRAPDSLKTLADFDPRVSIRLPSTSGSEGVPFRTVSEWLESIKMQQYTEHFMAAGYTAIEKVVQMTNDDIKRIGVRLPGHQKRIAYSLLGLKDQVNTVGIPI
UniProt O75460: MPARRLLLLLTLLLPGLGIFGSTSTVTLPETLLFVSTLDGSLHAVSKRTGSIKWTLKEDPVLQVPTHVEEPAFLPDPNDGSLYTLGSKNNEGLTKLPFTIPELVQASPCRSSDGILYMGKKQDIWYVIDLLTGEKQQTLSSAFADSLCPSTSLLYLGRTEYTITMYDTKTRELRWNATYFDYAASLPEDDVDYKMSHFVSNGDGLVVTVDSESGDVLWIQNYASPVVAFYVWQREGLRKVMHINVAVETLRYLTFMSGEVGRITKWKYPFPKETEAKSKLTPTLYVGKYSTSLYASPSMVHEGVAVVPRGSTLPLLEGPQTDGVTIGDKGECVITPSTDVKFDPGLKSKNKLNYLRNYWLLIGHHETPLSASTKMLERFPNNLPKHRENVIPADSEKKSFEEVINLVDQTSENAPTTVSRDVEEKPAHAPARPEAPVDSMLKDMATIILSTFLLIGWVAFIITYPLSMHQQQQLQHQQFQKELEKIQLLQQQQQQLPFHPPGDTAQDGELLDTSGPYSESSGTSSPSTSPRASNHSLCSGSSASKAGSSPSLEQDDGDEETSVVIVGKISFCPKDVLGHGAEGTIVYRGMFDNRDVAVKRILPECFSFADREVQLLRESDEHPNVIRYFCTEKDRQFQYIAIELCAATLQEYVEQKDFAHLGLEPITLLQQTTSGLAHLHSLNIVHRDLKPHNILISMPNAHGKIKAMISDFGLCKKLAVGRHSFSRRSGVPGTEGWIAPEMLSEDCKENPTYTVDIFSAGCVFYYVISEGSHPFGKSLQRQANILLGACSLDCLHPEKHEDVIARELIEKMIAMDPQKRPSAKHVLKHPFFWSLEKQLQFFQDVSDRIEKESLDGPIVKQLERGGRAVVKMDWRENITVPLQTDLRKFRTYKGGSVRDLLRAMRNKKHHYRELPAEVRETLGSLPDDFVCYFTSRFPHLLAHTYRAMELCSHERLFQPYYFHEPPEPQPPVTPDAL
UniProt P11362, whole entry, looked up: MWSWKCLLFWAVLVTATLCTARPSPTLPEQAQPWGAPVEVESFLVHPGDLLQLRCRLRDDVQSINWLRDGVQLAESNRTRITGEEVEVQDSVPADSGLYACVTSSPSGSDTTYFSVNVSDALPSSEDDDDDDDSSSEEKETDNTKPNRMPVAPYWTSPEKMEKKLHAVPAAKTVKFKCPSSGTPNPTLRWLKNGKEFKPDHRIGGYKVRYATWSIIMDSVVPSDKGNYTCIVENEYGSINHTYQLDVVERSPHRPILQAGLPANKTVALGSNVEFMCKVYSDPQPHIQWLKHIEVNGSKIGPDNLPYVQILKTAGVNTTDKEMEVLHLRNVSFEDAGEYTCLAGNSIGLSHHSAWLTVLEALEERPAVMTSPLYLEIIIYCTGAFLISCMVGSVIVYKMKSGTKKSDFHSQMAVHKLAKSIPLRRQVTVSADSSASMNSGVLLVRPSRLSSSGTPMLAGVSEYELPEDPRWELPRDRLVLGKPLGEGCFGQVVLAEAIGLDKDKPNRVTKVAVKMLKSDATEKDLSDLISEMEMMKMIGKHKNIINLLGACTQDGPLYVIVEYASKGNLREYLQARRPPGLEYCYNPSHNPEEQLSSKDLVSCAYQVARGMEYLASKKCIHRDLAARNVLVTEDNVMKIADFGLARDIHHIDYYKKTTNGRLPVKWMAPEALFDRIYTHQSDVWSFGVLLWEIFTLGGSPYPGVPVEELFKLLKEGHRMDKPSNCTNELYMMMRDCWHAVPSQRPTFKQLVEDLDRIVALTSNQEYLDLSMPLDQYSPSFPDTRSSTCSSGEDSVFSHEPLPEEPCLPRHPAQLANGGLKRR
UniProt P21802, whole entry, looked up: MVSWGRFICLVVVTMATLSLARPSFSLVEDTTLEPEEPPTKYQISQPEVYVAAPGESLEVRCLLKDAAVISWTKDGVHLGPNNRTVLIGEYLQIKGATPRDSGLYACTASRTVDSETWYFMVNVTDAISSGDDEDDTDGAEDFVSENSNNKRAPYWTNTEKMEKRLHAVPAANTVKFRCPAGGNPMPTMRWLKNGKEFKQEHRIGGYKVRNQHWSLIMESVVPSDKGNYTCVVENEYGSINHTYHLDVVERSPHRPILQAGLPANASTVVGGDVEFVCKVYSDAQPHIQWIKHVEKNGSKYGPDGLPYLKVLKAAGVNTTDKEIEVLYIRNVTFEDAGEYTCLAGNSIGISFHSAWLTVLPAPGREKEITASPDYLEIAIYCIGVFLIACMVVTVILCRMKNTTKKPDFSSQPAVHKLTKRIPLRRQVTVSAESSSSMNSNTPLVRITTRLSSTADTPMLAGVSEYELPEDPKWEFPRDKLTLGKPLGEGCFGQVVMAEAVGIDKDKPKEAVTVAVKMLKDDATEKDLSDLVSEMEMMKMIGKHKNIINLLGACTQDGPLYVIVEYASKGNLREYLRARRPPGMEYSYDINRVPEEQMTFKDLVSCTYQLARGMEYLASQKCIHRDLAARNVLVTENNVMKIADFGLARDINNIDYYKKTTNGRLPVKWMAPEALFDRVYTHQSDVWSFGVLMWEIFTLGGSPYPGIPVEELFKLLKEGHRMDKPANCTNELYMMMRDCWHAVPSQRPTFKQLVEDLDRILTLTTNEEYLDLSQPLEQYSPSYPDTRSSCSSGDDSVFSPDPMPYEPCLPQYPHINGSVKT
UniProt P22607, whole entry, looked up: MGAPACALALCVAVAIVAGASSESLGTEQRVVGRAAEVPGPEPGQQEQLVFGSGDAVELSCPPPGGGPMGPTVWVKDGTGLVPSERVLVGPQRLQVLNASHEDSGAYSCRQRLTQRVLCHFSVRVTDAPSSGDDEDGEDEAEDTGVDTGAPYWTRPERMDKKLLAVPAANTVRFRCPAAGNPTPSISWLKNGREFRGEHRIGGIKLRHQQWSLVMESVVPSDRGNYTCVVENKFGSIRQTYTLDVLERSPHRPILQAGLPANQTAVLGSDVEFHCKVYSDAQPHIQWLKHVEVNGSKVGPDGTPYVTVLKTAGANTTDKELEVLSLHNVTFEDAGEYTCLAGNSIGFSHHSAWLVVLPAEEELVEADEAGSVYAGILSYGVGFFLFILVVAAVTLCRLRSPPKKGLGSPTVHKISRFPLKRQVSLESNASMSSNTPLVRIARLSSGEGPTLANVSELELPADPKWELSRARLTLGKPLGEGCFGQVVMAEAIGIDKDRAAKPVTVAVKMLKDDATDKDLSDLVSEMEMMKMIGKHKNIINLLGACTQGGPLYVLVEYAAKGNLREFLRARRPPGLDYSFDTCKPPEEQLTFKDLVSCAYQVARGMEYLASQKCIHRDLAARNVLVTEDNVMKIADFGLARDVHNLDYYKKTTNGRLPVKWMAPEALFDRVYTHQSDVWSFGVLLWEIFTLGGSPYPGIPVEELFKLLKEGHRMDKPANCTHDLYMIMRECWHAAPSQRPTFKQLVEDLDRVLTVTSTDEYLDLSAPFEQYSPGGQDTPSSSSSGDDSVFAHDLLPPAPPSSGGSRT

Assays:
Test in all cases: number of time points (of 5) at which kinase-Nluc abundance scored as decreased, DMSO-normalised (count); higher = more persistent destabilization
Settings in all cases: K562; 2-18 h
[1] = biological target: CSNK1A1 (UniProt P48729)
[2] = biological target: CSNK1D (UniProt P48730)
[3] = biological target: DDR1 (UniProt Q08345)
[4] = biological target: DYRK1B (UniProt Q9Y463)
[5] = biological target: DYRK2 (UniProt Q92630)
[6] = biological target: EGFR (UniProt P00533)
[7] = biological target: EGFR_G719S (UniProt P00533)
[8] = biological target: EGFR_G719S_T790M (UniProt P00533)
[9] = biological target: EGFR_L718V (UniProt P00533)
[10] = biological target: EGFR_L858R (UniProt P00533)
[11] = biological target: EGFR_L861Q (UniProt P00533)
[12] = biological target: EGFR_T790M (UniProt P00533)
[13] = biological target: EPHA2 (UniProt P29317)
[14] = biological target: ERBB3 (UniProt P21860)
[15] = biological target: ERBB4_R711C (clone: ERBB4_mut) (UniProt Q15303)
[16] = biological target: ERN1 (UniProt O75460)
[17] = biological target: FGFR1 (UniProt P11362)
[18] = biological target: FGFR2 (UniProt P21802)
[19] = biological target: FGFR3 (UniProt P22607)
[20] = biological target: FGR (UniProt P09769)

Measured: number of time points

CN1CCN(Cc2ccc(-c3cnc4[nH]cc(-c5ccc6[nH]ccc6c5)c4c3)cc2)CC1 (2.5 µM)
3: [18]
1: [3] | [10]
4: [14]
0: all other assays above

COc1ccc(-c2cc(=O)c3c(O)cc(O)cc3o2)cc1-c1c(O)cc(O)c2c(=O)cc(-c3ccc(O)cc3)oc12 [Bilobetin] (2.5 µM)
2: [8]
0: all other assays above

N#C/C(=C/c1ccc(O)c(O)c1)C(=O)N1CCc2ccccc21 [Tyrphostin AG 528] (10 µM)
0: all assays above
